These results are taken from PMC11025288.

Chains of the proteins cited; added tags and fusions are not shown.
UniProt Q96LA8: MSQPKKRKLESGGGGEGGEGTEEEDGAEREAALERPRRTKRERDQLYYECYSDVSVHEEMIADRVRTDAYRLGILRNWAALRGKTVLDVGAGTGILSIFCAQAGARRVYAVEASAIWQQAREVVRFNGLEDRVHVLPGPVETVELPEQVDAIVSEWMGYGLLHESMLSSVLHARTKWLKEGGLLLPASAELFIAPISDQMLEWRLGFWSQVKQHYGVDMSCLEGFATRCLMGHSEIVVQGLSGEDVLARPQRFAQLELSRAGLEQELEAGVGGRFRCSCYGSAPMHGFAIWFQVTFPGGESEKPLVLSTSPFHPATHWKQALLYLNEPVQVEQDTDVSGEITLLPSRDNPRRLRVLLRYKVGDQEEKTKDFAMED
UniProt P50750: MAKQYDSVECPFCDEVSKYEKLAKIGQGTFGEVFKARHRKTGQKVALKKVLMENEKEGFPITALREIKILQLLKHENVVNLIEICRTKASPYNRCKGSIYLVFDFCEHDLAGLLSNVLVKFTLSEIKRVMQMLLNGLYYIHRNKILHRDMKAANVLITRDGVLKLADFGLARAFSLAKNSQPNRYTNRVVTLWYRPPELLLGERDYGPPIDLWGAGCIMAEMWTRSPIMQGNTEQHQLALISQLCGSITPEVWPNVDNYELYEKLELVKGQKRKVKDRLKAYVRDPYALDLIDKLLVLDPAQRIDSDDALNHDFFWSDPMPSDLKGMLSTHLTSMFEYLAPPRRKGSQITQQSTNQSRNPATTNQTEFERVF

The target of this experiment is Protein arginine methyltransferase 6 (human (endogenous in LN229 and U251)) (UniProt Q96LA8). Nature of the experiment: co-IP; lysates of LN229 and U251 cells in IP lysis buffer, pre-cleared, primary antibody overnight at 4 °C, Protein G Sepharose, three washes, Western blot. On the technique in general: Immunoblotting shows a protein as a band on a membrane.

Results are given in words; binding and its absence hold for the method and conditions named. In cells and extracts the contact can be indirect. Some binding calls cover weakened binding; strength is not graded here.

Turning to “CDK9 (from UniProt P50750 1-372) (enzyme)”, the binding entry is recorded as “binds”.
